Data: PubChem BioAssay AID493014 (National Center for Advancing Translational Sciences (NCATS), 2011)
The list shows a part of the results. The main result of the screen is listed elsewhere. These columns were measured beside it and carry no call. Most of these compounds were active or inconclusive in the main read-out, so they are no random draw. Potencies come from curve fits of mixed quality, noted in brackets.

Assay: qHTS Assay to Find Inhibitors of Chronic Active B-Cell Receptor Signaling
Conditions: ABC-DLBCL IkBa-CBG/CBR reporter, luminescence ratio (green luciferase fused to IkBa over red control in TMD8 lymphoma cells), 4 h
Procedure, shortened: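 Cell line TMD8 (human ABC DLBCL), stably expressing tet-inducible CBG68-IkBa fusion and CBR; IMDM/0.5% FBS; cpd up to 46 uM; dox induction, 4 h, 37C/5% CO2; dual luminescence; green/red ratio; MG132 control.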

[1] = measured here: CBR red luminescence, cell number
[2] = measured here: IkBa-CBG green luminescence

## O=C(COc1ccc2ccc(=O)oc2c1)OCc1ccccc1
[1]
  AC50: 11.2 µM [rising, partial curve]

## C=CCSC1=NC(=O)/C(=C/c2cccs2)S1
[1]
  AC50: 1.46 µM [falling, full curve, poor fit]

## Cc1ccc(C)c(N(CC(=O)Nc2ccccc2C(=O)NCc2ccco2)S(=O)(=O)c2ccccc2)c1
[1]
  AC50: 0.517 µM [falling, full curve, poor fit]

## COc1cccc(NC(=O)CN(c2ccccc2OC)S(=O)(=O)c2cccs2)c1
[1]
  AC50: 5.17 µM [falling, partial curve]

## COc1ccc(-c2nnc(Nc3nc4c(OC)cccc4s3)o2)c(OC)c1
[1]
  AC50: 9.2 µM [falling, partial curve]

## Cc1cccc2cc(COC(=O)C(C)C)c(=O)[nH]c12
[1]
  AC50: 7.08 µM [rising, partial curve, poor fit]

## COc1ccc(NC(=O)N/C=C/c2ccco2)cc1
[1]
  AC50: 14.1 µM [falling, partial curve, poor fit]

## O=C1C(=O)N(Cc2cccc([N+](=O)[O-])c2)c2ccccc21
[1]
  AC50: 1.03 µM [rising, full curve, poor fit]
[2]
  AC50: 23.1 µM [falling, single point]

## Cc1ccc(NC(=O)CN(C)C(=O)c2ccc(Cl)c([N+](=O)[O-])c2)cc1
[2]
  AC50: 20.6 µM [rising, partial curve, poor fit]

## COc1ccc(C(=O)c2ccc(OC)c(OC)c2)cc1
[1]
  AC50: 3.26 µM [rising, partial curve, poor fit]

## CCN(C(=O)c1cc2c(s1)-c1ccccc1OC2)c1cc(OC)ccc1OC
[1]
  AC50: 35.5 µM [falling, single point]

## O=C(NCc1ccc(Cl)cc1)C(=O)NCC1CCCN1S(=O)(=O)c1cccs1 (stereo not drawn)
[1]
  AC50: 29.1 µM [rising, single point]

## CN(C(=O)COC(=O)c1ccc([N+](=O)[O-])cc1N)c1ccccc1
[1]
  AC50: 35.5 µM [rising, single point]

## O=C(OCc1cncs1)c1ccccc1
[1]
  AC50: 14.1 µM [rising, partial curve, poor fit]

## O=C(CSCCS(=O)(=O)c1ccc(Cl)cc1)Nc1ccccc1
[1]
  AC50: 11.2 µM [rising, single point]

## O=C1CS/C(=N/N=C/c2cccs2)N1
[1]
  AC50: 3.55 µM [rising, full curve, poor fit]

## COc1ccc(C(=O)CN2C(=O)c3ccccc3C2=O)cc1
[1]
  AC50: 35.5 µM [falling, single point]

## COc1ccccc1/C=C/C=N/n1c(-c2ccco2)n[nH]c1=S
[1]
  AC50: 20 µM [falling, partial curve]

## Oc1ccc(/C=N/NC(=S)NCCN2CCOCC2)c(O)c1
[1]
  AC50: 35.5 µM [falling, single point]

## COC(=O)c1sc(NC(=O)Cc2cccs2)nc1C
[1]
  AC50: 29.1 µM [falling, single point]

## COc1ccc(Cl)cc1NC(=O)C1COc2ccccc2O1 (stereo not drawn)
[1]
  AC50: 1.12 µM [rising, full curve, poor fit]

## COc1ccc(Cl)cc1CSc1n[nH]c(C)n1
[1]
  AC50: 23.1 µM [rising, partial curve]

## Cc1ccc(NC(=O)C2=C(c3ccccc3)S(=O)(=O)CCS2(=O)=O)cc1
[1]
  AC50: 2.24 µM [falling, full curve]

## Oc1ccccc1/C=N/n1cnnc1
[1]
  AC50: 20.6 µM [falling, partial curve, poor fit]

## CCN(CC)S(=O)(=O)c1ccc(C(=O)NCc2ccc3c(c2)OCO3)cc1
[1]
  AC50: 1.12 µM [falling, full curve, poor fit]

## Cc1nnc(SCC(=O)N(C)C2CCCCC2)s1
[1]
  AC50: 0.316 µM [rising, full curve, poor fit]

## CC(C)Cn1nc(NC(=O)C(C)(C)C)c2cc3ccccc3nc21
[1]
  AC50: 22.4 µM [falling, single point]

## CN(C)c1ccc(CNc2nc3ccccc3s2)cc1
[1]
  AC50: 0.316 µM [rising, full curve, poor fit]

## CN1CCN(C(=O)c2ccc(COc3cc(Cl)ccc3Cl)o2)CC1
[1]
  AC50: 0.447 µM [falling, full curve, poor fit]

## CCCn1nnc(NC(=S)NC(=O)Cc2ccccc2)n1
[1]
  AC50: 4.47 µM [falling, full curve]
[2]
  AC50: 1.78 µM [falling, partial curve, poor fit]

## Cc1ccc2nc(NC(=O)C3CCCN(S(=O)(=O)c4cccc5nsnc45)C3)sc2c1 (stereo not drawn)
[1]
  AC50: 10 µM [falling, partial curve, poor fit]

## CCn1ccnc1CN1CCc2c([nH]c3ccccc23)C1C1CCCCC1 (stereo not drawn)
[1]
  AC50: 15.8 µM [falling, single point]

## O=C(NNC(=O)c1n[nH]c2ccccc12)c1ccccc1
[1]
  AC50: 13 µM [falling, partial curve]

## CC(=O)Oc1ccccc1N(C(C)=O)S(=O)(=O)c1ccc2ccccc2c1
[2]
  AC50: 28.2 µM [falling, single point]

## COc1ccc(NCC(=O)Nc2ccc(C#N)cc2)cc1Cl
[1]
  AC50: 0.517 µM [rising, full curve]

## CC(=O)Nc1ccc(NC(=O)CSc2nnc(NC(=O)c3cccc(F)c3)s2)cc1
[1]
  AC50: 12.6 µM [falling, single point]

## Cc1ccc(NC(=O)c2ccc(F)c(S(=O)(=O)NCCc3ccccc3)c2)cc1F
[1]
  AC50: 10 µM [falling, partial curve, poor fit]

## O=C(Cn1nnc(-c2ccccc2Cl)n1)NCc1ccc2c(c1)OCO2
[1]
  AC50: 2.59 µM [falling, full curve]

## CCOc1ccc(-n2c(SCC(=O)Nc3ccc(Br)cc3)nc3n[nH]c(C)c3c2=N)cc1
[1]
  AC50: 22.4 µM [rising, single point]

## C=CCOc1ccc(/C(CC)=N/O)c(OC)c1
[1]
  AC50: 11.6 µM [rising, partial curve]

## Cc1c(Cl)cccc1N(Cc1ccc(C(=O)O)cc1)S(=O)(=O)c1ccccc1
[1]
  AC50: 35.5 µM [rising, single point]

## CCN1CCN(c2nc(Nc3ccccc3)nc(N)c2[N+](=O)[O-])CC1
[1]
  AC50: 32.6 µM [rising, partial curve, poor fit]

## CCOc1ccc2nc(N(Cc3cccnc3)C(=O)c3ccco3)sc2c1
[1]
  AC50: 3.16 µM [rising, partial curve, poor fit]

## CC(C)(C)C(=O)Nc1ccc(C(=O)NNC(=O)c2ccccc2)cc1
[1]
  AC50: 35.5 µM [rising, single point]

## O=C(COc1ccccc1)NC(NC(=S)Nc1ccccc1O)C(Cl)(Cl)Cl (stereo not drawn)
[1]
  AC50: 11.2 µM [falling, partial curve, poor fit]

## Cc1cc(C(=O)NNC(=S)Nc2ccccc2)nn1C
[1]
  AC50: 10 µM [falling, partial curve]

## CCOCC(=O)Nc1cc(C(=O)NCCc2ccccc2)ccc1Cl
[1]
  AC50: 11.2 µM [falling, partial curve]

## CCc1ccc(C(CNC(=O)c2ccc3c(=O)n(-c4ccccc4F)c(=S)[nH]c3c2)N(C)C)cc1 (stereo not drawn)
[1]
  AC50: 12.6 µM [falling, single point]

## CN1CCN(C(=O)c2ccc3nc(-c4ccccc4)c(-c4ccccc4)nc3c2)CC1
[1]
  AC50: 35.5 µM [falling, single point]

## COc1cc2c(cc1OC)[C@@H](NC(=O)CCc1ccccc1)[C@H](O)C2
[1]
  AC50: 20.6 µM [rising, partial curve, poor fit]

## CCN(C(=O)COC(=O)c1cccnc1Nc1ccccc1F)C1CCS(=O)(=O)C1 (stereo not drawn)
[1]
  AC50: 0.411 µM [falling, full curve]

## COc1ccc(C(C)=O)cc1COc1ccccc1[N+](=O)[O-]
[1]
  AC50: 2.24 µM [rising, full curve, poor fit]

## Cc1ccc(C(=O)N2CCC(Cc3ccccc3)CC2)cc1[N+](=O)[O-]
[1]
  AC50: 17.8 µM [falling, partial curve, poor fit]

## CN1C(=O)/C(=C\c2ccccc2F)Sc2ccc(C(=O)NC3CCN(Cc4ccccc4)CC3)cc21
[1]
  AC50: 35.5 µM [falling, single point]

## c1ccc(OCCCCn2cnc3ccccc32)cc1
[1]
  AC50: 7.31 µM [rising, partial curve, poor fit]

## Cc1nonc1C(=O)N/N=C/c1ccncc1
[1]
  AC50: 15.8 µM [falling, partial curve, poor fit]

## C=CC[C@H](CC(=O)OC(C)(C)C)C(=O)OC[C@@H]1CCCN1C(=O)[C@@H](CC=C)CC(=O)NCCO
[1]
  AC50: 32.6 µM [rising, single point]

## O=C(CSc1nc(-c2ccc(F)cc2)cs1)N1CCc2ccccc21
[1]
  AC50: 0.891 µM [rising, full curve]

## COc1ccc(C(=O)NC(Nc2ccc(C)cc2)C(Cl)(Cl)Cl)cc1 (stereo not drawn)
[1]
  AC50: 23.1 µM [falling, single point]
[2]
  AC50: 29.1 µM [rising, partial curve, poor fit]

## c1ccc(C[C@H]2CN=C(Nc3ccccc3)N2CCC2CCCC2)cc1
[1]
  AC50: 14.6 µM [falling, partial curve, poor fit]

## COc1ccccc1Nc1nnc(SCc2cc(=O)n3ccsc3n2)s1
[1]
  AC50: 35.5 µM [falling, single point]

## O=C(CNC(=O)c1ccc(Br)cc1)N=Nc1c(O)[nH]c2ccc([N+](=O)[O-])cc12
[1]
  AC50: 0.112 µM [falling, full curve, poor fit]

## O=C(NCC1COc2ccccc2O1)c1ccco1 (stereo not drawn)
[1]
  AC50: 5.62 µM [rising, single point]

## Cc1ccc(S(=O)(=O)CCSC(=N)N)cc1
[1]
  AC50: 5.01 µM [falling, partial curve]
[2]
  AC50: 20 µM [falling, single point]
